Assay results published in the M2OR odorant receptor database.
The list shows a part of the results, in another mix than the full data. The calls were merged from several studies; some rest on single wells. The list shows a part of the results.

By UniProt entry, the sequences of proteins in these tests, tags left out. Chains listed by the source or under a name are the forms on record and can include a tag or linker.
UniProt Q924X8, as listed by the source: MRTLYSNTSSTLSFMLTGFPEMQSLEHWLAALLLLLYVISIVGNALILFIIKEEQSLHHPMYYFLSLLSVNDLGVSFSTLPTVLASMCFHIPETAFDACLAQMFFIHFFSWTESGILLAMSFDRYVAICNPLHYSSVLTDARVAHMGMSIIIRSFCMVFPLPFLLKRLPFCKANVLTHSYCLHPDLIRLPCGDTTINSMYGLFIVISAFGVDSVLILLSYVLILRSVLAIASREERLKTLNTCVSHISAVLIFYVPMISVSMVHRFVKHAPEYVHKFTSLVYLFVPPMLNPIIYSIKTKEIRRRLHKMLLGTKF

What was measured:
Conditions in all cases: stereoisomer not certain
UniProt Q8VGX8 = molecular target: T1, UniProt Q8VGX8
T1 sequence (whole entry): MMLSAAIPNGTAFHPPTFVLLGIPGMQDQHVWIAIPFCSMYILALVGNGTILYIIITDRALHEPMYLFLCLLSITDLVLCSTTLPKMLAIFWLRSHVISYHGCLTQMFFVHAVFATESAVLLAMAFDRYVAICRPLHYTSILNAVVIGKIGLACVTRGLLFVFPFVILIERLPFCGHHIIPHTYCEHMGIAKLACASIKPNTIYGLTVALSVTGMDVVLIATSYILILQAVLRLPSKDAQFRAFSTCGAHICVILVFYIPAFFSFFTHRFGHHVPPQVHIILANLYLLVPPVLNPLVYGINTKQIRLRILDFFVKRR
Outline: (§1)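 Each receptor–molecule pair is labelled responsive or non-responsive (inactive) according to whether the original authors judged the measured signal statistically different from baseline. The data were taken from the main text and supplementary material of published papers and checked for typos and inconsistencies. Assay methods differed by source, with transient luciferase assays in mammalian cell lines being common.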

UniProt Q8VH18 = molecular target: T2, UniProt Q8VH18
T2 sequence (whole entry): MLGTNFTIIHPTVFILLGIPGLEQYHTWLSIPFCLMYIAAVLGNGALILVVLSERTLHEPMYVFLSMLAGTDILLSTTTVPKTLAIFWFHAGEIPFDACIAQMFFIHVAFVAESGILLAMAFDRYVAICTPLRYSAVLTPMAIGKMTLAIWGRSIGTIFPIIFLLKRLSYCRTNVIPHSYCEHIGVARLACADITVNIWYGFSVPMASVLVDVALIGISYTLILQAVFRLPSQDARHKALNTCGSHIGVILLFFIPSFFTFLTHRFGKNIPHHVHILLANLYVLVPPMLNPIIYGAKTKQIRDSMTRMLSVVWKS
Outline: as §1

UniProt Q924X8 = molecular target: UniProt Q924X8
Outline: as §1

UniProt Q8VGU3 = molecular target: T3, UniProt Q8VGU3
T3 sequence (whole entry): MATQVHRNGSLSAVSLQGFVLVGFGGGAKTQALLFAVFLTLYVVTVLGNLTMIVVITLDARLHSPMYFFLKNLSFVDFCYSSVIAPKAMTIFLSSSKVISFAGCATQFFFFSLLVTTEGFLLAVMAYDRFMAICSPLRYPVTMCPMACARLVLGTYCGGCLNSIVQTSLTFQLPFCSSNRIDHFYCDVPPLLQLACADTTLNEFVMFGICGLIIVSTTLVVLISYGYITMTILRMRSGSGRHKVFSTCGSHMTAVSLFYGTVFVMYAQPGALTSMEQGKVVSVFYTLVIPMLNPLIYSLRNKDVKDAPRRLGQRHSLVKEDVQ
Outline: as §1

UniProt Q8VGV7 = molecular target: T4, UniProt Q8VGV7
T4 sequence (whole entry): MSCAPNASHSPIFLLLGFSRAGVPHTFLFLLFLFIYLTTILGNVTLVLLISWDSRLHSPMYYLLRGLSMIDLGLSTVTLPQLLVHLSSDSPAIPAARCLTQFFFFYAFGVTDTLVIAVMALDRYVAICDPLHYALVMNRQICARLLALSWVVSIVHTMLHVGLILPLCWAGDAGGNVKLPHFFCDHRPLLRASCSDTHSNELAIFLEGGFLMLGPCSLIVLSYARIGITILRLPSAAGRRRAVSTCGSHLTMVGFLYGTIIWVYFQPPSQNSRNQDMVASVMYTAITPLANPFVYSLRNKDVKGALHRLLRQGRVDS
Outline: as §1

UniProt Q8VGX3 = molecular target: T5, UniProt Q8VGX3
T5 sequence (whole entry): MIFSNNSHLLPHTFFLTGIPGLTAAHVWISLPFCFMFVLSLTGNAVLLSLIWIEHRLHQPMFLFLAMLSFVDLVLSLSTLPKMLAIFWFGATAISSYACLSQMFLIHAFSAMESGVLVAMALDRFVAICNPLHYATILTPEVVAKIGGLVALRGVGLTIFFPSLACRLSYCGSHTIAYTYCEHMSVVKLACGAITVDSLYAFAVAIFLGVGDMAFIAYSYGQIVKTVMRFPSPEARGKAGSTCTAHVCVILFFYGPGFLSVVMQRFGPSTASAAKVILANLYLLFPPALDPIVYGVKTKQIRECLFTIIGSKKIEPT
Outline: as §1

UniProt Q8VGX5 = molecular target: T6, UniProt Q8VGX5
T6 sequence (whole entry): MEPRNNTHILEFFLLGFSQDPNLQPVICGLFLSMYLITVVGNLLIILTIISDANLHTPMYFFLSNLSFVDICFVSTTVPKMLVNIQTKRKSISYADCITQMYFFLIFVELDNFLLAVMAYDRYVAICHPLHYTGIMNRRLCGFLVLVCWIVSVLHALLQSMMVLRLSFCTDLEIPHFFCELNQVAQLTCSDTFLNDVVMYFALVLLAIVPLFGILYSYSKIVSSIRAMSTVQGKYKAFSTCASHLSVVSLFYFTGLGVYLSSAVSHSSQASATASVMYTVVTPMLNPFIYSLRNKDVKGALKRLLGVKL
Outline: as §1

UniProt Q8VGZ2 = molecular target: T7, UniProt Q8VGZ2
T7 sequence (whole entry): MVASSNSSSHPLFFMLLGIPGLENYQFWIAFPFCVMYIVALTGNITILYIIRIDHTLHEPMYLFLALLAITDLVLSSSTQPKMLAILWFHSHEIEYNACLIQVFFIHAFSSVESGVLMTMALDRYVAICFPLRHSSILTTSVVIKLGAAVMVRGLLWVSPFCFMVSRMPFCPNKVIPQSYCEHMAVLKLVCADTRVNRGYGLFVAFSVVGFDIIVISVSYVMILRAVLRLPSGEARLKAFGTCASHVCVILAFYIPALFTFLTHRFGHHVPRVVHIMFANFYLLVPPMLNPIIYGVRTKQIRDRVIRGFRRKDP
Outline: as §1

UniProt Q8VGZ7 = molecular target: T8, UniProt Q8VGZ7
T8 sequence (whole entry): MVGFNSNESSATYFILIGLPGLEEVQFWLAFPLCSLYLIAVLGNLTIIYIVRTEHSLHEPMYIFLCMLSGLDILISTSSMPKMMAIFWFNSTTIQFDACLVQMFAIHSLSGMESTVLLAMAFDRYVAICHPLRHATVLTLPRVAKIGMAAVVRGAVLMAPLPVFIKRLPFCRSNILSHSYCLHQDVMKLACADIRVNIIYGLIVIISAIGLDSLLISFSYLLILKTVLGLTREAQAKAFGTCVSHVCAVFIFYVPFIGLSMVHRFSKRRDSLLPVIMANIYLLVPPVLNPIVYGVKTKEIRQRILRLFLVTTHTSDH
Outline: as §1

UniProt Q8VH16 = molecular target: T9, UniProt Q8VH16
T9 sequence (whole entry): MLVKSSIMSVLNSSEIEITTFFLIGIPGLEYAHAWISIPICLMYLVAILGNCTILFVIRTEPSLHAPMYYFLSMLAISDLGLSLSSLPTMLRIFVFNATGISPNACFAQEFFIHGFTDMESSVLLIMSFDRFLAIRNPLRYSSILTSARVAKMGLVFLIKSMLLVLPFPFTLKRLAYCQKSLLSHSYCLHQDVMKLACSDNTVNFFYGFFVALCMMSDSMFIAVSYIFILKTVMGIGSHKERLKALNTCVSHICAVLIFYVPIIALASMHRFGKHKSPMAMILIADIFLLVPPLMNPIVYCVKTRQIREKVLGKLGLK
Outline: as §1

UniProt Q8VH20 = molecular target: T10, UniProt Q8VH20
T10 sequence (whole entry): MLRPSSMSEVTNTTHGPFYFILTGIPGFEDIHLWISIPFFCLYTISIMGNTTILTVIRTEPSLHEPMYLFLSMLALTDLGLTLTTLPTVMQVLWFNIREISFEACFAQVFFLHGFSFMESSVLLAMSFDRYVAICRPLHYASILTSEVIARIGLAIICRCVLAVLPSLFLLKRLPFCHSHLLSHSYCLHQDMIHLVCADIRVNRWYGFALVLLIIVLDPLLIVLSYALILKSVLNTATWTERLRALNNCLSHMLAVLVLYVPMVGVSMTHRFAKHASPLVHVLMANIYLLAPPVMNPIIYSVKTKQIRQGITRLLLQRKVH
Outline: as §1

UniProt Q8VH21 = molecular target: T11, UniProt Q8VH21
T11 sequence (whole entry): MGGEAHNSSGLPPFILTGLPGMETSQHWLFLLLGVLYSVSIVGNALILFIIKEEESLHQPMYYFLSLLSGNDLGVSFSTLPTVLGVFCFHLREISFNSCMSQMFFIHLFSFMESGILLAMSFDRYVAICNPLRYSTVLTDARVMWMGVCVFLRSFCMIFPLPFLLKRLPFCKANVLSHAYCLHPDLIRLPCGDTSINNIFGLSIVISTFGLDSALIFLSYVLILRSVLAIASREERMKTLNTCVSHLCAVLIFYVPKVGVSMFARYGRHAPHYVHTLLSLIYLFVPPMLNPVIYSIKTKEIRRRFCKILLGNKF
Outline: as §1

UniProt Q924H8 = molecular target: T12, UniProt Q924H8
T12 sequence (whole entry): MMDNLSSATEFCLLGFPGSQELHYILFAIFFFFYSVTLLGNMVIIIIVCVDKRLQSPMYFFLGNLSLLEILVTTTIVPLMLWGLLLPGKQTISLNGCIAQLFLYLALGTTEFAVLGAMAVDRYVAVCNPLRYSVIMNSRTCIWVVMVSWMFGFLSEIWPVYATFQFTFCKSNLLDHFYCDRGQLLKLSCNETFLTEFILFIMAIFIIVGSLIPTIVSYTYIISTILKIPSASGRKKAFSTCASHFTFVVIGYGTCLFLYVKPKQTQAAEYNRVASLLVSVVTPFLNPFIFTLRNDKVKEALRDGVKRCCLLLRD
Outline: as §1

UniProt Q8VGT4 = molecular target: T13, UniProt Q8VGT4
T13 sequence (whole entry): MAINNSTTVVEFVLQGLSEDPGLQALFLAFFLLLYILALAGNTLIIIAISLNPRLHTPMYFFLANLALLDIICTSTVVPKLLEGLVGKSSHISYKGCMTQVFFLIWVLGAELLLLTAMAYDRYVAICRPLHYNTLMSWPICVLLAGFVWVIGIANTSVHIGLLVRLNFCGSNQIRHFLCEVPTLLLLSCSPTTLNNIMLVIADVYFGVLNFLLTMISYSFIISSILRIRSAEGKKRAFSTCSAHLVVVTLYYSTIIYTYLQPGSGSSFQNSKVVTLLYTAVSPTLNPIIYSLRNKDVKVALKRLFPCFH
Outline: as §1

UniProt Q8VGV1 = molecular target: T14, UniProt Q8VGV1
T14 sequence (whole entry): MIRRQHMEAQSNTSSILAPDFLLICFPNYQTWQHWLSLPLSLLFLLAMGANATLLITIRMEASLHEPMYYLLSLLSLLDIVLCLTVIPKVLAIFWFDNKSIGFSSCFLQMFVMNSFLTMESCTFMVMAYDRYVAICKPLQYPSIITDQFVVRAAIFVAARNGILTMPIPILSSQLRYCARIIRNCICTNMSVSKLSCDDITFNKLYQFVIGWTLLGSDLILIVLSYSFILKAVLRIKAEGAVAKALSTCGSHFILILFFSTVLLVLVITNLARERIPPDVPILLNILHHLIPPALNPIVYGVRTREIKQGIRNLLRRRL
Outline: as §1

UniProt Q8VGY6 = molecular target: T15, UniProt Q8VGY6
T15 sequence (whole entry): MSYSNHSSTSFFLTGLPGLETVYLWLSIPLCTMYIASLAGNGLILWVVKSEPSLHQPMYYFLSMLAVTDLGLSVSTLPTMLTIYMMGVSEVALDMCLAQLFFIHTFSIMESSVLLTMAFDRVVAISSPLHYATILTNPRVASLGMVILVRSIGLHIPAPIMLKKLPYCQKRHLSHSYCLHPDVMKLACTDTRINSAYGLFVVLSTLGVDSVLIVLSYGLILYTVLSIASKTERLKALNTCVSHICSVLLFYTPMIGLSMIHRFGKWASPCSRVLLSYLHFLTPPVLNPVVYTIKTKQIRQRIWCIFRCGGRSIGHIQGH
Outline: as §1

UniProt Q8VH10 = molecular target: T16, UniProt Q8VH10
T16 sequence (whole entry): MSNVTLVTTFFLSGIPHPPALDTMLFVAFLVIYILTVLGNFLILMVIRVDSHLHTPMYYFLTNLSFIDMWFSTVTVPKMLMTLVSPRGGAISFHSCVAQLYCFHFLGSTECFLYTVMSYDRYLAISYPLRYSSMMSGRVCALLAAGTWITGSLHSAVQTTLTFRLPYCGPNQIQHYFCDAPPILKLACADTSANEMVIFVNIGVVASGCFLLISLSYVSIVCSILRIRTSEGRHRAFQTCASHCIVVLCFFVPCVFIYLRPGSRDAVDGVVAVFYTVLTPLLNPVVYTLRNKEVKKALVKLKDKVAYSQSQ
Outline: as §1

Measured: odorant receptor agonist call

CCCC(=O)O
inactive: UniProt Q8VGX8 | UniProt Q8VH18 | UniProt Q924X8

CC(C)=CCCC(C)=CC=O
inactive: UniProt Q8VGU3 | UniProt Q8VGV7 | UniProt Q8VGX3 | UniProt Q8VGZ2 | UniProt Q8VGZ7 | UniProt Q8VH16 | UniProt Q8VH20 | UniProt Q8VH21 | UniProt Q924H8
active: UniProt Q8VGX5

CC12CCC(C1)C(C)(C)C2=O (configuration not stated)
inactive: UniProt Q8VGT4 | UniProt Q8VGV1 | UniProt Q8VGX8 | UniProt Q8VGY6 | UniProt Q8VGZ2 | UniProt Q8VGZ7 | UniProt Q8VH10 | UniProt Q8VH20
active: UniProt Q8VGX5

CC1COCc2cc3c(cc21)C(C)(C)C(C)C3(C)C (configuration not stated)
not listed: UniProt Q8VGX8 | UniProt Q8VH18 | UniProt Q924X8 | UniProt Q8VGT4 | UniProt Q8VGV1 | UniProt Q8VGY6 | UniProt Q8VH10
inactive: all other assays above

CC12CCC(CC1)C(C)(C)O2
active: UniProt Q8VGX5
inactive: UniProt Q8VGU3 | UniProt Q8VGV7 | UniProt Q8VGX3 | UniProt Q8VGZ2 | UniProt Q8VGZ7 | UniProt Q8VH16 | UniProt Q8VH20 | UniProt Q8VH21 | UniProt Q924H8
